In patent publication US8686024B2, “Indoline derivatives” (priority 2009, dated 2014):

melting point: 175 to 178 °C
SMILES: CC(C)(C)c1ccc(NC(=O)Oc2ccc3c(c2)CCN3Cc2ccccc2)cc1
